Values quoted from earlier work in patent publication US20090162315A1 (priority 2004, published 2009).
For at least one compound, name, drawing or mass did not settle the structure.

Assays:
patients with MPE = conditions: in vivo; cited from earlier work
[1] = tested on: patients with MPE from NSCLC; conditions: in vivo; cited from earlier work

SMILES: C[C@H]1c2cccc(O)c2C(=O)C2=C(O)[C@]3(O)C(=O)C(C(N)=O)=C(O)[C@@H](N(C)C)[C@@H]3[C@@H](O)[C@@H]21 [doxycycline]
- Response rate in MPE (patients with MPE): 70%
- median survival [1]: 3.0 months
